The other results are listed elsewhere or left out.

Amino acid sequences for entries named in this document (tags omitted).
UniProt Q0JBA9, entry or part of it: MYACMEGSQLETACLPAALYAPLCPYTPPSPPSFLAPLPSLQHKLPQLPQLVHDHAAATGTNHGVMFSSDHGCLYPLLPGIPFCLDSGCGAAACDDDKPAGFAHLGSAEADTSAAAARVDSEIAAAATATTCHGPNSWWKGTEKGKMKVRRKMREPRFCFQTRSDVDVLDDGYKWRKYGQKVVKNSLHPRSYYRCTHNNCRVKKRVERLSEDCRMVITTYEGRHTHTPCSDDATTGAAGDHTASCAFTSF

The assay addresses OsWRKY34 (Oryza sativa, UniProt Q0JBA9 1-250). Nature of the assay: protein-binding microarray (RPBM); PBS, 2% BSA, 51.3 ng/ul salmon testes DNA, 50 uM zinc acetate, 200 nM TF, 25 C, 1 h; high values mean tight binding. To be noted: protein: recombinant; tags: N-terminal polyhistidine and DsRed monomer fusion (pET32a); label: CyDye5-dUTP incorporated in the synthesized complementary strand; 3' TTTTT single-stranded linker to array surface; dsDNA, one strand shown. In a few lines: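 Binding signal is defined as the fluorescence intensity of each feature in arbitrary units, read on an Axon 4000B scanner. Transcription factors with N-terminal polyhistidine and DsRed fusions came from E. coli BL21-CodonPlus and were purified on Ni–NTA. They were incubated at 200 nM for 1 h at 25 °C on a custom Agilent array that had been made double-stranded with Cy5-dUTP, with 50 µM zinc acetate present, and the array was washed.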
With “CCGCCGCCTCGTCCGCGACCGCCGCCGTGCGCGCCTCCGCCGGAGTCACCTAGTGCAG”, the binding signal was 10300 fluorescence intensity (a.u.).
In the case of “AGACCCTTTTTTTTTTCTTTGCTTCGAGCCGAAGGAGACGCGGAGTCACCTAGTGCAG” it was 11200 fluorescence intensity (a.u.); in that of “CGATCCGTCCATCACAACATCGGACGGCCCACGTTACACCCGGAGTCACCTAGTGCAG”, 9020 fluorescence intensity (a.u.); in that of “CTCACTTTCCTCGTTTTCCGTACACATGCTTACCAAATTGCGGAGTCACCTAGTGCAG”, 8220 fluorescence intensity (a.u.).
On to “AGAATGGTCTTATATGTTGTGTAGTGGTGTGTGGGCGTGTCGGAGTCACCTAGTGCAG”, for which the binding signal is 8170 fluorescence intensity (a.u.).
In the case of “TCATTCATAATTCATCCATTCATTCGGTCAACCGGTCACACGGAGTCACCTAGTGCAG” it was 8120 fluorescence intensity (a.u.).
“TCATAATTGGATGGCATTGTACTGTGATTTGTTTGTGTTGCGGAGTCACCTAGTGCAG”: the binding signal was 12000 fluorescence intensity (a.u.).
For “GTCCTTTTCTAATGATTCACCTTCACTTGATCCATCTGAGCGGAGTCACCTAGTGCAG”, the binding signal is 9050 fluorescence intensity (a.u.).
Regarding “TCACTGGATATTTCCACTGCATCATGGTCTACAATCATATCGGAGTCACCTAGTGCAG”, the binding signal was 11700 fluorescence intensity (a.u.).
Consider “ACCACTTTTGTCGTTTTTGTTTCCCTATTTTTTTCGAAATCGGAGTCACCTAGTGCAG”, for which the binding signal is 8540 fluorescence intensity (a.u.).
In the case of “TTCTTTCCCATGGTGCTTCTTTTTTTCAAGACATTTCTCTCGGAGTCACCTAGTGCAG” it was 12700 fluorescence intensity (a.u.).
In the case of “TGCTAATTGTATTTCTATATGGACTCTATACTCTACTTCTCGGAGTCACCTAGTGCAG” it was 8130 fluorescence intensity (a.u.).
“TACCCCACTCCACCTTCTGTTCTGCACGCACCCACCAATGCGGAGTCACCTAGTGCAG”: the binding signal was 9660 fluorescence intensity (a.u.).
For “CCCCGAGGAAGGGAGTACTTGATATCTTTTTCCCATTTAACGGAGTCACCTAGTGCAG” the value was 9050 fluorescence intensity (a.u.).
In the case of “CAATTTGTGGGGTAATATCTTCAACGGCCTCGCTTTCACTCGGAGTCACCTAGTGCAG” it was 9210 fluorescence intensity (a.u.); in that of “ACGAGTCGACCCAAAAAAATCTTCCATCATTTATTTTCTTCGGAGTCACCTAGTGCAG”, 9320 fluorescence intensity (a.u.); in that of “CGTTTGGTGTAGGCCCAGGCCGTGTACTTGGGCCCATCTGCGGAGTCACCTAGTGCAG”, 8440 fluorescence intensity (a.u.).
For “CTATTGGGTGGACGCCGAAGACAGCTTCTTCCCACGCCGCCGGAGTCACCTAGTGCAG”, the binding signal is 8220 fluorescence intensity (a.u.).
Regarding “ACTGGGAAATCGGGTTGGGGAGGGAGATGGACAGCTGGGTCGGAGTCACCTAGTGCAG”, the binding signal was 9230 fluorescence intensity (a.u.).
In the case of “TCTCGGGCCGAAACGGTCAACGCGTTTACCGGTGGCATAACGGAGTCACCTAGTGCAG” it was 17500 fluorescence intensity (a.u.).
Take “ACCGGCTCTCTAATCCTTAAATTCTGGCTTTGCTGCTAGTCGGAGTCACCTAGTGCAG”: the binding signal is 9240 fluorescence intensity (a.u.).
For “TCTCTCTGGGAGGTCTCGCGGAAGGTGGTGGGGTTGGGCCCGGAGTCACCTAGTGCAG”, the binding signal is 11500 fluorescence intensity (a.u.).
“TCTTCAGTAGTCTTGCTCTATATGCATTGTGATGTCCATCCGGAGTCACCTAGTGCAG”: the binding signal is 9060 fluorescence intensity (a.u.).
For “TGACTCTTCTATGCTTCTTGGACCAATTTGATTTTCAGGTCGGAGTCACCTAGTGCAG” the value was 10300 fluorescence intensity (a.u.); for “GCGTTTTACAGGGTTGCTTAGTGGGTGGGATGTTAACGATCGGAGTCACCTAGTGCAG”, 14700 fluorescence intensity (a.u.).
As for “TCCACATATGCTAGCTTATAGGCTGCTATTATATACTCTCCGGAGTCACCTAGTGCAG”, the binding signal was 8500 fluorescence intensity (a.u.).
For “GCCACCTCTGTCTGCCGCCACCGCCGCCGCCGCCGCCATGCGGAGTCACCTAGTGCAG” the value was 10200 fluorescence intensity (a.u.); for “CAATATTCTTTGACAGCTTCGATTGACATCTCACCTTATGCGGAGTCACCTAGTGCAG”, 8510 fluorescence intensity (a.u.); for “TTTTTTTCTGGTTTGACTCTTGAGGGCCTTTGCTGAAAGCCGGAGTCACCTAGTGCAG”, 10400 fluorescence intensity (a.u.).
Take “TTCGGCGGTGTGGTGTTAGCTAGTTCATGTCATGGCAACCCGGAGTCACCTAGTGCAG”: the binding signal was 8330 fluorescence intensity (a.u.).
Consider “TTTTTGGTGGGGTAGAGTTGTATTTGGTTTGAGGCCAATTCGGAGTCACCTAGTGCAG”, for which the binding signal was 9480 fluorescence intensity (a.u.).
In the case of “TCAACCGCTATCACACTACTTGCTAGCTCGTTACCCTATCCGGAGTCACCTAGTGCAG” it was 9030 fluorescence intensity (a.u.).
For “CACCGTGCGCGGTCTCTTGATCTCTCTTTTTCATGTCGTTCGGAGTCACCTAGTGCAG” the value was 8580 fluorescence intensity (a.u.); for “ATACACTGTTCTGTTCCTGTTTCCAACTCAAGAAAACTTCCGGAGTCACCTAGTGCAG”, 9210 fluorescence intensity (a.u.).
In the case of “GTGGCGTTGACCACCGACGTTGAAAATGGAAGCGCACATGCGGAGTCACCTAGTGCAG”, the binding signal is 8640 fluorescence intensity (a.u.).
In the case of “GAGCGCTCGTGTCTCCGCGTCGTCACTTGTAGTTTTGCAACGGAGTCACCTAGTGCAG”, the binding signal is 11200 fluorescence intensity (a.u.).
For “TTCTTTGTCTCTCTCTCTCGGGCGGATTTCGGTTTCTTCGCGGAGTCACCTAGTGCAG” the value was 9130 fluorescence intensity (a.u.).
On to “AGCTCAGAATCCTACCTGACTAGTACTACCACTACTAGCTCGGAGTCACCTAGTGCAG”, for which the binding signal is 8500 fluorescence intensity (a.u.).
For “CTCGCGCCCGCTCGCCGCCTCGTCCTCGCCGTCCTCGGTCCGGAGTCACCTAGTGCAG” the value was 8520 fluorescence intensity (a.u.); for “CCACTTTTGGAGTCAAACTGTGGCCTATCTCTTCACACGTCGGAGTCACCTAGTGCAG”, 9760 fluorescence intensity (a.u.); for “CGTAATTTACACGCAATATGTGTAATTAGTTATTTTTTTCCGGAGTCACCTAGTGCAG”, 9270 fluorescence intensity (a.u.).
Consider “CATTGACGGCACCTGCCATCTCGGTTCTTCAGTTACTATTCGGAGTCACCTAGTGCAG”, for which the binding signal was 10300 fluorescence intensity (a.u.).

(Values after paper PMC7819943, “Rice protein-binding microarrays: a tool to detect cis-acting elements near promoter regions in rice”.)
